Our source for the Inhibition values is ChEMBL document CHEMBL4513139, “CO-ADD screening of University of Strathclyde (UK) compounds”.

The structures appear in SMILES notation. The list shows a part of the results. Results with a measured potency or affinity are listed apart.

For orientation: Inhibition means the percentage by which the read-out fell short of the control.

The assay concerns Acinetobacter baumannii. Particulars: Concentration 32 ug.mL-1; ASSAY_TEST Inhibition of Bacterial Growth; detection method Absorption (OD600); MEDIA CAMHB; plate type 384well; NBS; CORNING #3640; time 18 hr.
Take `CCOP(=O)(OCC)C(Cc1cn(Cc2cnc(C)nc2N)nn1)C(=O)O.O=C(O)C(F)(F)F` (stereo unspecified): the Inhibition is given as 10.59%.
